These are yes or no findings as the source states them, for the method shown. In cells and extracts the contact can be indirect. These calls come from enrichment with a bait or labelling near it, and not all partners need be listed.

Chains of the proteins cited; added tags and fusions are not shown.
UniProt Q7Z6E9: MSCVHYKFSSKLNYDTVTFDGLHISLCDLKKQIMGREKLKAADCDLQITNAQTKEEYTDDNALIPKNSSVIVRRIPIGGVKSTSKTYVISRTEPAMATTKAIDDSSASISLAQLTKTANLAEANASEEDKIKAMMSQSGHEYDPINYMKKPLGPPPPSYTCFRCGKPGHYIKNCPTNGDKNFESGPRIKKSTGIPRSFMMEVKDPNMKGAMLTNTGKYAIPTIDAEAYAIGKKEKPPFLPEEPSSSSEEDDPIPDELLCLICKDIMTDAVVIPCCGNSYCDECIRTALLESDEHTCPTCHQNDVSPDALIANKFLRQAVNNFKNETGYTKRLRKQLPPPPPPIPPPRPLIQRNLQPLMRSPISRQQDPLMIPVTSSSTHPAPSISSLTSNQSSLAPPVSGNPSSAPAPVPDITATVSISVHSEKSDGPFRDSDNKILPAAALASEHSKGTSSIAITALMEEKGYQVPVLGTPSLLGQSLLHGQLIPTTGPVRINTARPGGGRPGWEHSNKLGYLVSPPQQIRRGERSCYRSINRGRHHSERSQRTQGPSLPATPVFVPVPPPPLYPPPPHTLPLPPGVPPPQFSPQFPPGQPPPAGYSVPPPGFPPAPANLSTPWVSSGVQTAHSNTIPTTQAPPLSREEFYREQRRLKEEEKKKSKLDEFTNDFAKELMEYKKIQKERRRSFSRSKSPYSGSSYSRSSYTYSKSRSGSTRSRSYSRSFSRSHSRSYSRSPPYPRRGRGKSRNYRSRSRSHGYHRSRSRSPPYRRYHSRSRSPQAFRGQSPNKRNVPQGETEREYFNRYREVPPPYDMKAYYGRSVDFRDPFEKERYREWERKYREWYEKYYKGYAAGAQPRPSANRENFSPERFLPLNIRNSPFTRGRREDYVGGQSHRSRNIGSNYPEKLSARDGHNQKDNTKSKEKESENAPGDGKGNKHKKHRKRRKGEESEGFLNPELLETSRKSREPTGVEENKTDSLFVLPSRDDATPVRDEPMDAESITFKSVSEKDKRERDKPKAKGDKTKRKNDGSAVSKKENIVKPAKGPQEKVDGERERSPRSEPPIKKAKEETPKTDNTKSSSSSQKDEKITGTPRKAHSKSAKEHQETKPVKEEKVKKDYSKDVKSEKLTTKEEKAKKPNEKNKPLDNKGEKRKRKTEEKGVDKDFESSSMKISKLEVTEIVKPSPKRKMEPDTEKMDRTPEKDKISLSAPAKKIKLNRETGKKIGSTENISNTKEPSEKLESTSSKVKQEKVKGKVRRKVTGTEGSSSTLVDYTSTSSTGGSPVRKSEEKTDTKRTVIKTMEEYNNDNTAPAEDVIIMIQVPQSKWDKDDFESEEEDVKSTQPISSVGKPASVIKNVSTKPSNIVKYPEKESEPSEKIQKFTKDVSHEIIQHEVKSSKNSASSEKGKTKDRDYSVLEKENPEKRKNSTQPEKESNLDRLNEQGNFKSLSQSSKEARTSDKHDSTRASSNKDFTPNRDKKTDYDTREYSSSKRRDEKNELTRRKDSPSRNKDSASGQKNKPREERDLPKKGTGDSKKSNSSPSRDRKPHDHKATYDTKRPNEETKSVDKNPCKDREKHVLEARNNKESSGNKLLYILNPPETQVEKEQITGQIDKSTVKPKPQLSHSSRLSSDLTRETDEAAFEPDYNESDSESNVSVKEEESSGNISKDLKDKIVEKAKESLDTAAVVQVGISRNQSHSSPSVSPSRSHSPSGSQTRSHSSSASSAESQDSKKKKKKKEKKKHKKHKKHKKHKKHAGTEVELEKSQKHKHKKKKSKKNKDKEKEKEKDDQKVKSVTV

To fix the notation:
B1: CPSF2 (protein, UniProt Q9P2I0 1-782)
chain: MTSIIKLTTLSGVQEESALCYLLQVDEFRFLLDCGWDEHFSMDIIDSLRKHVHQIDAVLLSHPDPLHLGALPYAVGKLGLNCAIYATIPVYKMGQMFMYDLYQSRHNTEDFTLFTLDDVDAAFDKIQQLKFSQIVNLKGKGHGLSITPLPAGHMIGGTIWKIVKDGEEEIVYAVDFNHKREIHLNGCSLEMLSRPSLLITDSFNATYVQPRRKQRDEQLLTNVLETLRGDGNVLIAVDTAGRVLELAQLLDQIWRTKDAGLGVYSLALLNNVSYNVVEFSKSQVEWMSDKLMRCFEDKRNNPFQFRHLSLCHGLSDLARVPSPKVVLASQPDLECGFSRDLFIQWCQDPKNSIILTYRTTPGTLARFLIDNPSEKITEIELRKRVKLEGKELEEYLEKEKLKKEAAKKLEQSKEADIDSSDESDIEEDIDQPSAHKTKHDLMMKGEGSRKGSFFKQAKKSYPMFPAPEERIKWDEYGEIIKPEDFLVPELQATEEEKSKLESGLTNGDEPMDQDLSDVPTKCISTTESIEIKARVTYIDYEGRSDGDSIKKIINQMKPRQLIIVHGPPEASQDLAECCRAFGGKDIKVYMPKLHETVDATSETHIYQVRLKDSLVSSLQFCKAKDAELAWIDGVLDMRVSKVDTGVILEEGELKDDGEDSEMQVEAPSDSSVIAQQKAMKSLFGDDEKETGEESEIIPTLEPLPPHEVPGHQSVFMNEPRLSDFKQVLLREGIQAEFVGGVLVCNNQVAVRRTETGRIGLEGCLCQDFYRIRDLLYEQYAIV
B2: CSTF2 (protein, UniProt P33240 1-577)
chain: MAGLTVRDPAVDRSLRSVFVGNIPYEATEEQLKDIFSEVGPVVSFRLVYDRETGKPKGYGFCEYQDQETALSAMRNLNGREFSGRALRVDNAASEKNKEELKSLGTGAPVIESPYGETISPEDAPESISKAVASLPPEQMFELMKQMKLCVQNSPQEARNMLLQNPQLAYALLQAQVVMRIVDPEIALKILHRQTNIPTLIAGNPQPVHGAGPGSGSNVSMNQQNPQAPQAQSLGGMHVNGAPPLMQASMQGGVPAPGQMPAAVTGPGPGSLAPGGGMQAQVGMPGSGPVSMERGQVPMQDPRAAMQRGSLPANVPTPRGLLGDAPNDPRGGTLLSVTGEVEPRGYLGPPHQGPPMHHVPGHESRGPPPHELRGGPLPEPRPLMAEPRGPMLDQRGPPLDGRGGRDPRGIDARGMEARAMEARGLDARGLEARAMEARAMEARAMEARAMEARAMEVRGMEARGMDTRGPVPGPRGPIPSGMQGPSPINMGAVVPQGSRQVPVMQGTGMQGASIQGGSQPGGFSPGQNQVTPQDHEKAALIMQVLQLTADQIAMLPPEQRQSILILKEQIQKSTGAP
B3: Cleavage and Polyadenylation Specific Factor 3 (CPSF3) (protein, UniProt Q9UKF6 1-684)
chain: MSAIPAEESDQLLIRPLGAGQEVGRSCIILEFKGRKIMLDCGIHPGLEGMDALPYIDLIDPAEIDLLLISHFHLDHCGALPWFLQKTSFKGRTFMTHATKAIYRWLLSDYVKVSNISADDMLYTETDLEESMDKIETINFHEVKEVAGIKFWCYHAGHVLGAAMFMIEIAGVKLLYTGDFSRQEDRHLMAAEIPNIKPDILIIESTYGTHIHEKREEREARFCNTVHDIVNRGGRGLIPVFALGRAQELLLILDEYWQNHPELHDIPIYYASSLAKKCMAVYQTYVNAMNDKIRKQININNPFVFKHISNLKSMDHFDDIGPSVVMASPGMMQSGLSRELFESWCTDKRNGVIIAGYCVEGTLAKHIMSEPEEITTMSGQKLPLKMSVDYISFSAHTDYQQTSEFIRALKPPHVILVHGEQNEMARLKAALIREYEDNDEVHIEVHNPRNTEAVTLNFRGEKLAKVMGFLADKKPEQGQRVSGILVKRNFNYHILSPCDLSNYTDLAMSTVKQTQAIPYTGPFNLLCYQLQKLTGDVEELEIQEKPALKVFKNITVIQEPGMVVLEWLANPSNDMYADTVTTVILEVQSNPKIRKGAVQKVSKKLEMHVYSKRLEIMLQDIFGEDCVSVKDDSILSVTVDGKTANLNLETRTVECEEGSEDDESLREMVELAAQRLYEALTPVH

This assay has as its target RB Binding Protein 6, Ubiquitin Ligase (RBBP6), bait of the IP-MS (human) (UniProt Q7Z6E9). As to the kind of experiment: affinity purification with mass spectrometry; immunoprecipitation of RBBP6 coupled with mass spectrometry (IP-MS); cells, bait and antibody not told.
In the case of B1, the binding entry is listed as “binds”.

For the molecule B2, the binding entry is recorded as “binds”.

For the molecule B3, the binding result is recorded as “binds”.
